This passage reports binding results from article PMC6302113.

Sequences of proteins named here, by UniProt entry; tags and fusion partners are left off. Residues count along the entry.
UniProt P60568, residues 21-153: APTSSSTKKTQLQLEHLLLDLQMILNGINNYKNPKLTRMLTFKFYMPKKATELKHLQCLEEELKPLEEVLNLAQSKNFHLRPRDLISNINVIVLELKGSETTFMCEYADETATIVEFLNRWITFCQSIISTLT
UniProt P14625, residues 22-803: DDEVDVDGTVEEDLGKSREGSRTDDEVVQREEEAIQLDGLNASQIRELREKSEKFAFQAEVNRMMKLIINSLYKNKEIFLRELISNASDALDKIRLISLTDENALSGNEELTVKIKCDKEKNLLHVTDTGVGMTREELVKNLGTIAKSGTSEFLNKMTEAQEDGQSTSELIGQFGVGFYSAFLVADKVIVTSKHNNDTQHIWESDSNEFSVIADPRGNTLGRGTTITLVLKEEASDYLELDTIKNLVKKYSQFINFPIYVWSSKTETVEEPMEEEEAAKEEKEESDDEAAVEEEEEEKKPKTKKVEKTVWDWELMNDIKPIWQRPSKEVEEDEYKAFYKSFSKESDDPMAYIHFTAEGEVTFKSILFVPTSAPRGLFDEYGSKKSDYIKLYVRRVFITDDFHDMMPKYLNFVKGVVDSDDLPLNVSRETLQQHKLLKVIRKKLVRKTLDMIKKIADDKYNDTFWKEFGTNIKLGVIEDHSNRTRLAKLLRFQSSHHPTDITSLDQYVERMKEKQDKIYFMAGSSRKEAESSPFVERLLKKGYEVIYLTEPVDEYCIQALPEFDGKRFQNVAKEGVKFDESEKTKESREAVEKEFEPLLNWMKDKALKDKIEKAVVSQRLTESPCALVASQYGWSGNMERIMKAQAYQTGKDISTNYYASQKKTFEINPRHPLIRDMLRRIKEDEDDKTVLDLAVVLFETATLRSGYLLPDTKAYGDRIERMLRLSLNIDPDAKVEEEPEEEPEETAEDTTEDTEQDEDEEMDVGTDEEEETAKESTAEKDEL
UniProt P11021, residues 19-654: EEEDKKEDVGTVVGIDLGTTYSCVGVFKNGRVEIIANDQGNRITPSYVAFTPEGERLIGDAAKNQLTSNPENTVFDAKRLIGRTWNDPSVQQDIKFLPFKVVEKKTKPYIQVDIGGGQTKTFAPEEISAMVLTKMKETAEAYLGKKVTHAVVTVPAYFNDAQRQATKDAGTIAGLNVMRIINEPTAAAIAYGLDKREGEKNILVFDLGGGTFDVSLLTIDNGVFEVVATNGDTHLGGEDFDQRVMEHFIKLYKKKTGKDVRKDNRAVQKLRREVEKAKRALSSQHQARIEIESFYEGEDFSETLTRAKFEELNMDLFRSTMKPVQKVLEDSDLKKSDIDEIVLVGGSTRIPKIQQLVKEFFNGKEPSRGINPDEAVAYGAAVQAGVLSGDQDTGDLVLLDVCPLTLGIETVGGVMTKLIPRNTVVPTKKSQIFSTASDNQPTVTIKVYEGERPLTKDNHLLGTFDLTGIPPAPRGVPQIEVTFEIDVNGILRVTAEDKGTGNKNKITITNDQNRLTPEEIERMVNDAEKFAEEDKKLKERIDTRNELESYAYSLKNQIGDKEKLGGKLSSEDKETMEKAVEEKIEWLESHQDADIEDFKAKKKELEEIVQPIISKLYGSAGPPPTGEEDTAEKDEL
UniProt P27824, residues 21-592: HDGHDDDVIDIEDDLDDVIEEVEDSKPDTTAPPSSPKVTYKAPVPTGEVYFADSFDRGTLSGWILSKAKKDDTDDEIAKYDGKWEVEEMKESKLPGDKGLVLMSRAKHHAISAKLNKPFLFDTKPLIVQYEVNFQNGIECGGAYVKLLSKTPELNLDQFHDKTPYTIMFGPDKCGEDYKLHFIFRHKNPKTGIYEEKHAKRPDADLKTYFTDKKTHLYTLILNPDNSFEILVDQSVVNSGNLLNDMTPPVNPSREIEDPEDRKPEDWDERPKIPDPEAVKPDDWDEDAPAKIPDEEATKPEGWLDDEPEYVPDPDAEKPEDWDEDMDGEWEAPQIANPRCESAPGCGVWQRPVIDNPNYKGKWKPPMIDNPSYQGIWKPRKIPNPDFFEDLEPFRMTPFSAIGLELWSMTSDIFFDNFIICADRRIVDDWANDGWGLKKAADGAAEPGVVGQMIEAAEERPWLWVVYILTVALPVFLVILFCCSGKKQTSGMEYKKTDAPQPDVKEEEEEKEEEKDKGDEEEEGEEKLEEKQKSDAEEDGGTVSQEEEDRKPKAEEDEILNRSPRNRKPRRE

No constants are given. Whether binding was seen depends on the method and setting. Binding seen in cells or lysates may run through a third protein. These calls come from enrichment with a bait or labelling near it, and not all partners need be listed. For some of these results: No binding means not detected with the bait. For some of these results: Where a sequence is shown, tags or fusion partners need not be part of it.

Holding throughout (assay): affinity purification with mass spectrometry; anti-FLAG resin from lysates of transiently transfected HEK293 or HeLa cells, o/n at 4°C, washed with 50 mM Tris, 150 mM NaCl, pH 7.4, 0.1% Tween 20; eluates on SDS-PAGE, silver stained, bands cut and identified by nLC MS/MS; the legend speaks of DSP treatment
Test [1] deals with T1, IL-22 binding protein isoform-1 (IL-22BPi1), C-terminally myc-FLAG-tagged (human) (UniProt Q969J5).
T1 sequence: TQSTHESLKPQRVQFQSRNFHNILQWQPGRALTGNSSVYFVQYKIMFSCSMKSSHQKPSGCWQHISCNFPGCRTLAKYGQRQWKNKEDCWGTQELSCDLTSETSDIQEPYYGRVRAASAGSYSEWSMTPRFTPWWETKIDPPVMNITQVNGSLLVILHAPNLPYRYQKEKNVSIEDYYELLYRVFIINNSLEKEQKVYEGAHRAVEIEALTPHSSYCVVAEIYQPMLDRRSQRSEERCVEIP

For test [2], the target named is T2, IL-22, C-terminal Myc-FLAG-tagged (UniProt Q9GZX6).
T2 sequence: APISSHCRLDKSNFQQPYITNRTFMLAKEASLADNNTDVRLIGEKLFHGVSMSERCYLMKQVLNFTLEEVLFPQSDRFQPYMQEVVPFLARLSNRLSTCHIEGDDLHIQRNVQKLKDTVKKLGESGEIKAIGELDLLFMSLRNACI

Test [3] concerns the target T3, IL-22 binding protein isoform-2 (IL-22BPi2), C-terminally myc-FLAG-tagged (human) (UniProt Q969J5).
T3 sequence: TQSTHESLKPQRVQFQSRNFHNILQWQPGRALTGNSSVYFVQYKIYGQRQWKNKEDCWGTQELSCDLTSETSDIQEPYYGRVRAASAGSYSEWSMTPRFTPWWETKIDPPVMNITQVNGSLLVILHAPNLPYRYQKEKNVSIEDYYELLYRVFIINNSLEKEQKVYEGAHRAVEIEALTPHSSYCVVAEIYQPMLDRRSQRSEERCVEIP

The target in test [4] is IL-2, C-terminal Myc-FLAG-tagged (UniProt P60568).
Test [5] has as its target T4, IL-22 binding protein isoform-3 (IL-22BPi3), FLAG-tagged (human) (UniProt Q969J5).
T4 sequence: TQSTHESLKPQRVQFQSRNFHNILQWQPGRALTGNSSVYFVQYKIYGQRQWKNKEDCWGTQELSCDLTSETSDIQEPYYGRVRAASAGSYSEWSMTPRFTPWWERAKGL

Regarding “GRP94, endogenous (from UniProt P14625 22-803)”, the binding entry in test [1] is recorded as “binds”.

With “GRP78, full-length endogenous (from UniProt P11021 19-654)”, the binding result in test [1] is on record as “binds”; in test [2], “no binding”; in test [3] it was “binds”; in test [4], “no binding”; in test [5] it was “no binding”.

Consider “calnexin, endogenous (from UniProt P27824 21-592)”, for which the binding result in test [1] and in test [3] was “binds” in each case.

B1: GRP170, endogenous (protein, UniProt Q9Y4L1 33-999)
chain: LAVMSVDLGSESMKVAIVKPGVPMEIVLNKESRRKTPVIVTLKENERFFGDSAASMAIKNPKATLRYFQHLLGKQADNPHVALYQARFPEHELTFDPQRQTVHFQISSQLQFSPEEVLGMVLNYSRSLAEDFAEQPIKDAVITVPVFFNQAERRAVLQAARMAGLKVLQLINDNTATALSYGVFRRKDINTTAQNIMFYDMGSGSTVCTIVTYQMVKTKEAGMQPQLQIRGVGFDRTLGGLEMELRLRERLAGLFNEQRKGQRAKDVRENPRAMAKLLREANRLKTVLSANADHMAQIEGLMDDVDFKAKVTRVEFEELCADLFERVPGPVQQALQSAEMSLDEIEQVILVGGATRVPRVQEVLLKAVGKEELGKNINADEAAAMGAVYQAAALSKAFKVKPFVVRDAVVYPILVEFTREVEEEPGIHSLKHNKRVLFSRMGPYPQRKVITFNRYSHDFNFHINYGDLGFLGPEDLRVFGSQNLTTVKLKGVGDSFKKYPDYESKGIKAHFNLDESGVLSLDRVESVFETLVEDSAEEESTLTKLGNTISSLFGGGTTPDAKENGTDTVQEEEESPAEGSKDEPGEQVELKEEAEAPVEDGSQPPPPEPKGDATPEGEKATEKENGDKSEAQKPSEKAEAGPEGVAPAPEGEKKQKPARKRRMVEEIGVELVVLDLPDLPEDKLAQSVQKLQDLTLRDLEKQEREKAANSLEAFIFETQDKLYQPEYQEVSTEEQREEISGKLSAASTWLEDEGVGATTVMLKEKLAELRKLCQGLFFRVEERKKWPERLSALDNLLNHSSMFLKGARLIPEMDQIFTEVEMTTLEKVINETWAWKNATLAEQAKLPATEKPVLLSKDIEAKMMALDREVQYLLNKAKFTKPRPRPKDKNGTRAEPPLNASASDQGEKVIPPAGQTEDAEPISEPEKVETGSEPGDTEPLELGGPGAEPEQKEQSTGQKRPLKNDEL
With B1, the binding entry in test [1] and in test [3] was “binds” in each case.
